{"source": "patent US20110243854A1", "about": "“Methods and systems for identifying modulators of longevity” (The Regents of the University of California, priority 2007, published 2011)", "assay": "Body weight of cAMP analog-fed flies", "type": "in vivo, Drosophila melanogaster", "settings": "male and female w^1118 flies fed 1 μM and 10 μM, versus controls", "data": [{"smiles": "CCCC(=O)Nc1ncnc2c1ncn2[C@@H]1O[C@@H]2COP(=O)(O)O[C@H]2[C@H]1OC(=O)CCC", "note": "[db-cAMP, dibutyryl-cAMP]", "values": [{"measurement": "body weight", "value": "remained the same as controls"}, {"measurement": "body weight", "setting": "listed as dibutyryl—cAMP", "value": "did not affect body weight"}]}]}
